Our source for the binding values is PMC9466652.

These are yes or no findings as the source states them, for the method shown. Binding seen in cells or lysates may run through a third protein. Some entries that bind do so weakly or less than the wild type. Sequences can lack the tags named with a protein.

T1: HSPC300-eGFP (Dictyostelium) (UniProt Q54X65)
T1 sequence: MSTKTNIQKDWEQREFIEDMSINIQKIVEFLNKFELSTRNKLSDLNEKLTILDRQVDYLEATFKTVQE

B1: Pir121 (protein, UniProt Q6UK63 1-1336)
chain: MSVDPKQSKIADVFERCDVLESFPFHDDQSEIEEQSPSIGYDAYDKSLNYTDRGAYETQWSEETIGMEKMEEVLKQGDSFINMVYTYRSCSKALPTVKTAEQVNKTQIYEGNFEVLEPEIKKLKDFMYFQKDTIKLFCDHIKKLASTYDKKKETISASESFINYLVRILDLLAILDALKNMKACLNNDFSFFKRATGFLRKQMSGTEDQTQENHTLYLFLANQNSITSSLKLELHNIDKFDDILPMIVNQCADYLEQEKYILPSEKHCLLRVMPFVLFLIDENDSKHNINKNKNLNISRYAKIFKKNPVVPLYGDMQITLESLVKRSPHFDEKAWGTSTLDSKSALDYEIIHVLDQTRSLYNEYMARFANMVNEIRAAKARGPKEPLPLAESDIQAITLMGLRILSDWTSRVLQQSAWKYSKPNNDPTISATFDYERVVKFNYTKEERTALVQLIAMIKSLASLMMKSETLLQPILRKTIHQELQEFVQINLKETIKSFVKNNPKKKDNIKLEMSQLKNISVDWFSGFEPAEAVPNKKSKEVEEKVQIPARAVPPSPTQLELILTLVSSLMDKKKDFSSDQYRDFEAFSSKAFFYRYLLSLSSSIISITDLADLWYREFYLELNNRVQFPIETSLPWILTDHILESDDPSLIEHLFYPLGLYNDTAQRALLSLNQRFLYDEIEAELNLCFDQLLYKLSGKVYTHFKTQASSILLDKPYKTQLELAHFNGKLHTPKSRFDVLLRQKHITLLGRSIDLCGLLAQRQNNTIRQNLDYAISRFEACDLTSIVELETQIANIKLTHKLLSEYFDIDPFESIFNEINESTSLVSYHGRIVLHIIFELVADFAPNYTFNSITQRFIKAPYTFTEELKRDALPKTNPVFLFGNKYLNAAYANSIELYKNFIGVPHIQSILRIVGKKNLPLIVAEVLRNIEIKITNVLSPYVSELLQGMPASTKLPIYDYGTEGGYGYFQLKLKDIYIYPDLRPEVLQTFRELGNSLVFMNLLDQVITQTDSYNFAKAAPFLGITPETWKDLEPSTEDPTLQSPLYSQLQKLAQLLESRPEVAKSSQSLNDMVANAWRADKFYRPSEQNFSLFKSVLQRFSSILNIVRHDWSGAPPDNGVICVDSSTEFYRLWSALQFVICWPLSNENDKSFHELFGDGLMWAGCSLIHFLGQQYRFELFDFCYHILNVEEAAAVRSDKPALKNFFKNAQIIKDINNQIFSILNTYCPPPPPSNMILSPPATEQAEQFIVTTTVEEQSIQQQQQQQQQQQLQQSTSNSGSSLSLSAAGAPPPPPPPSTNGLPPPPPMAEYEMSSSIDDFAPPPPPPFGMPPPPPM
B2: Abi (protein, UniProt Q55FT9 1-332)
chain: MSESIDINVYSQTTIPNAMAELMDNHNKMEQISAYCKSLYANGDAAQAYEQTQGYAKNALLNVAYHIQTVGTHITSLLQLQTNEMEKLNIEIQTLTQRVRMIHDSTGTNVFSNQDAAKPYKSSLKNRKVDTEATKAPVKYVHKPISYGISASDINQNGVPPPLNHSNSSANLTSSSGHLAASSTSNSSTPSYQSPSYSSQPTISSGTPPPIQKQPPRVGNAPPPPSLSVPAAPPPPVMNVPPPPPTSQRPSSVNNNAPSNDFPPPPPPSSSSSGGDLPPPPSFGLPPPPTLGDDFPPPPPPPVGSYDFPPPPARPQSQFYDHNDFPPPPPPM
B3: Scar (protein, UniProt Q54NF8 1-443)
chain: MVLITRYLPSVTDNNQPALEGQSKDQIVDTVITSTTVGIINQLTMLVAHSNSIFTALANDANLVTQRIEKLGSRIRPLIQSIPSIEDYHRNTSIDTMNSKPRAEFHADNSERNQHFTHASIPASINTVYEKCKPPPNLQLLDPYMDDGQKSLKLYTNPDFFMDEWVAEQQKLHEEARQRKRERREARLKKKGEKNEVEVKKVKSVTKVRYDPVTGEKITINIESPHTSSPQIQHQSNNTATPQHTTQHFGTNQYQAPPPPPLSQSSPSQQHSPINSYTPPPPPLNTSTPSPSSSFQGRPPSTGFNTPPPPMSNNNNMPPPPPMQQNGGAANNRLSVHNSAPIVAAPAPPPPPPPPSAPAPPPPPMAKAGGGASDIKPKASGARSDLLSSIMQGMALKPAEERKVAEAPKKEEALNVADILARRIAWAGDSDSSEDESDDSDWD
B4: Nap1 (protein, UniProt Q869Q3 1-1160)
chain: MAHTNLPEKFQVVIENGENILQRVYNTYKLFQNNKVKPSFFNDEKISKILKNLIAKYPELPENNDKSITGFDLLTSRAKQHLEELEDHYYTITDAYDWKEASFILMQEISSNTVSINFNNNIQLCSKFLDVLVLYGKINYLVSLIPDKKIITAVYAKLFLYTRSASEPTFSKMGRWINDIEQPFKKIQEEFRVLNDAVGHALSSFELTYAKRRVITQLRKDGALNLILKPEDIARPVQDSYRIELAYAGRIQQWILFGYLFAPGTLSTPQSIELLRFTLSECFYLSVFKDISISIHNEFNTLFKNYKSKTINLQKQKKIIKDAAQASTQEAPRKHAERRVYIRQELEAMWNLFRDKPCLLAPKINVLLAALSMAKEEIFWYFRHTDVIPPEKVKKFYNKQNEVREKRISSLLSLVDHLVQLVHTHKKMIQNYYLEYISGADILGLQKVITPQLLQNAGSIVTQAVNTIVNELKSLNANGQDYSFEGFRANWMRLGYLLQSNSCPLKESESKQITSRLNLIYTHSKNVDCLDQLLDEYGNMTQLWSYKEPLFHSFDAAIVDMTCDQPSHSMIYLKLLSQFPNHVANQFYPEEKELIGKECVELANSCLTKITNRIVSIMANTIASTFLSDEQQLADVNAAFPLLQKKKDWKPPKDFVPPIEPASESQFRNRANLEQLRSEEKNAFQLCTALNEFLDITIYDHIFVPREFLREKLGSALKQYMRQSIQPPAPTSSSSQIDINITRLSTYESQLRVFIGVLILVENHVDIDIGDLIRETILTEFYAKALGKSGRVDWFPEGEIEMNELTLHSITSYYVDLVSKKLNTPGVVFSPVKLGFISKAGTPFRAEEHADLTEMRALCDLVGPYGIKVIEREILRFILTTTTSMKEILSLNAANLEEFASNYYKPKAMELLKKFKTTDLDLIVTKSIAIGNALHLRSMIRESMKDVITDNFPYINNAVANAFDQYNRNTFMFPDFLGVDTLALDSGLNVGIADQYLKVILRKVSSEADKRIWELLPVMFSLTFYGNIWKETQYKATIDAHSNNVHVLSKTIIDLLIAFGAINSTTGNEAELFQSFKRFLEISSVNILRMFKGKQGEKFVPNEIQSVIIFLDKFTQQCPLLSKDSLEQYIPYSLIRNMYKDLYEHKNLQKQQSETSEQNF

For this assay, the target named is T1, HSPC300-eGFP (Dictyostelium). Put plainly: pull-down; GFP-TRAP pulldown of HSPC300-eGFP expressed in Ax2, pkbA-, pkgB- and pkbA-/pkgB- cells; western blot for Pir121, Nap1, Scar, Abi and GFP. Background: A western blot detects proteins with antibodies after separation by electrophoresis.
As for B1, the binding entry is “binds”.
With B2 the entry was “binds”; with B3, “binds”.
Take B4: the binding result was “binds”.
